In patent US20230110113A1, “FGFR TYROSINE KINASE INHIBITORS FOR THE TREATMENT OF HIGH-RISK NON-MUSCLE INVASIVE BLADDER CANCER” (Janssen Pharmaceutica NV, priority 2020, published 2023):

Key:
[1] = tested on: EJ28 bladder cancer cell line (FGFR status unknown); experiment: cells; settings: Homo sapiens, EJ-28, 96 h, read-out: Cell viability IC50
[2] = tested on: UM-UC-14 bladder cancer cell line (FGFR3 S249C); experiment: cells; settings: UMUC14, 96 h, read-out: Cell viability IC50
[3] = tested on: 639-V bladder cancer cell line (WT/R248C?); experiment: cells; settings: Homo sapiens, 96 h, read-out: Cell viability IC50
[4] = tested on: MGH-U3 bladder cancer cell line (FGFR3 Y373C); experiment: tissue or blood; settings: 96 h, read-out: Cell viability IC50
[5] = tested on: RT4 bladder cancer cell line (FGFR3-TACC3); experiment: tissue or blood; settings: 96 h, read-out: Cell viability IC50
[6] = tested on: T24 bladder cancer cell line (WT); experiment: tissue or blood; settings: 96 h, read-out: Cell viability IC50
[7] = tested on: UM-UC-1 bladder cancer cell line (WT); experiment: tissue or blood; settings: 96 h, read-out: Cell viability IC50
[8] = tested on: 5637 bladder cancer cell line (WT); experiment: tissue or blood; settings: 96 h, read-out: Cell viability IC50
[9] = tested on: CLS439 bladder cancer cell line (FGFR status unknown); experiment: tissue or blood; settings: 96 h, read-out: Cell viability IC50

IC50 [1]: 2.64 µM
IC50 [2]: 0.0031 µM
IC50 [3]: > 1 µM
IC50 [4]: 0.0023 µM
IC50 [5]: 0.0011 µM
IC50 [6]: 3.33 µM
IC50 [7]: 0.00096 µM
IC50 [8]: 3.84 µM
IC50 [9]: 6.54 µM
SMILES: COc1cc(OC)cc(N(CCNC(C)C)c2ccc3ncc(-c4cnn(C)c4)nc3c2)c1 [erdafitinib, N-(3,5-dimethoxyphenyl)-N′-(1-methylethyl)-N-[3-(1-methyl-1H-pyrazol-4-yl)quinoxalin-6-yl]ethane-1,2-diamine]
